Source: the supplement of paper PMC10849652
The other results are listed elsewhere or left out.

Chains of the proteins cited; added tags and fusions are not shown. Lines headed by an entry give the natural chain unless they say otherwise; changes in a name come on top.
UniProt Q8WVT3: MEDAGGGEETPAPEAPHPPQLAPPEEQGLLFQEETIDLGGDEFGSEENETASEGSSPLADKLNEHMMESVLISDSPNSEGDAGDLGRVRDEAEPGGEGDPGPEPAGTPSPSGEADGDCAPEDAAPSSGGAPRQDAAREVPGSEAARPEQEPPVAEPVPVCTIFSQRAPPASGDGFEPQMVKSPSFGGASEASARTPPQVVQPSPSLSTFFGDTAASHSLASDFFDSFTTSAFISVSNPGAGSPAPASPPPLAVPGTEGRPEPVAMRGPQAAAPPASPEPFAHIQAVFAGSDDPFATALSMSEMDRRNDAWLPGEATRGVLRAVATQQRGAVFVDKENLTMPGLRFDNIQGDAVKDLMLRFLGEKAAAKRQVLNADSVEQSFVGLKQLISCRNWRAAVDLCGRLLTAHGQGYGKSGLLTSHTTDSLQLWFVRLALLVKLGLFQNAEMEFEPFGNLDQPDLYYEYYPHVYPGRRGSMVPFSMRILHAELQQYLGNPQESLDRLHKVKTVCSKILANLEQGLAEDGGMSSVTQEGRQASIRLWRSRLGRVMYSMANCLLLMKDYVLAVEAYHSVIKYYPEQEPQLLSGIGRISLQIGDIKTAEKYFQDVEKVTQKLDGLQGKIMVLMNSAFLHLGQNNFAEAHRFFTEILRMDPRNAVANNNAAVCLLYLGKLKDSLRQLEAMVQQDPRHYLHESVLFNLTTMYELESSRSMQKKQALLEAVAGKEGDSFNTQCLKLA
UniProt P19474, whole entry, looked up: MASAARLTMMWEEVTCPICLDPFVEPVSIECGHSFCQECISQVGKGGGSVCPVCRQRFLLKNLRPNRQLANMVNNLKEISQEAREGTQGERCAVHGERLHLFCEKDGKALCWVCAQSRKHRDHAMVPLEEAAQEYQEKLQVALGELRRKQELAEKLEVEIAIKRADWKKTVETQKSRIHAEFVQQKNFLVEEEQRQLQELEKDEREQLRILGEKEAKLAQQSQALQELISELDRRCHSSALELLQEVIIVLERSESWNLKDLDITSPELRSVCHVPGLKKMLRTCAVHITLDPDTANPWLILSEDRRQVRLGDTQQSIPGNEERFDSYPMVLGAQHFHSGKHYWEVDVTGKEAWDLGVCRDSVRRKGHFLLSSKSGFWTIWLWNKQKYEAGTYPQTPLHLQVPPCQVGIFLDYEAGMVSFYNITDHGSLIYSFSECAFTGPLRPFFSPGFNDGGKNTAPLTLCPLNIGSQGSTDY
UniProt O00635: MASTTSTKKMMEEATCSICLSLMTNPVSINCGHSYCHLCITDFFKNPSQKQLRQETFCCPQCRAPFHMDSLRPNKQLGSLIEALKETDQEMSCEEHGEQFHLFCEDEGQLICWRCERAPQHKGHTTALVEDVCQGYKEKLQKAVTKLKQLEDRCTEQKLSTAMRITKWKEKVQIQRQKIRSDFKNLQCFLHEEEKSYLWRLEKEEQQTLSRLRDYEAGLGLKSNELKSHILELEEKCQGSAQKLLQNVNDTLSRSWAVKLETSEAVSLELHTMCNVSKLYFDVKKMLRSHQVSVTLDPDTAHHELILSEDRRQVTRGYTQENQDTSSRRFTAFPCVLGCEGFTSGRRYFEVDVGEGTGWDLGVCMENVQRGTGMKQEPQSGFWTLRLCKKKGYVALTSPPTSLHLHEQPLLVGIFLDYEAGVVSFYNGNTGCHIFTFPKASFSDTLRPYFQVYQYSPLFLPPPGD
UniProt Q16762: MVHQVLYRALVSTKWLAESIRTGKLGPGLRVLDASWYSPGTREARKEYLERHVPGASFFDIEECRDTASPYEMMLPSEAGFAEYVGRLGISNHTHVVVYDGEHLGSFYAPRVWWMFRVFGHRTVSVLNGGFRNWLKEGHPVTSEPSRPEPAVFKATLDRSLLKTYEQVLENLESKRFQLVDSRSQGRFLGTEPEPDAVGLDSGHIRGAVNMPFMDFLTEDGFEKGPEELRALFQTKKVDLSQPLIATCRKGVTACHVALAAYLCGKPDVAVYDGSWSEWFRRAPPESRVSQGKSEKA
UniProt Q7Z4G4: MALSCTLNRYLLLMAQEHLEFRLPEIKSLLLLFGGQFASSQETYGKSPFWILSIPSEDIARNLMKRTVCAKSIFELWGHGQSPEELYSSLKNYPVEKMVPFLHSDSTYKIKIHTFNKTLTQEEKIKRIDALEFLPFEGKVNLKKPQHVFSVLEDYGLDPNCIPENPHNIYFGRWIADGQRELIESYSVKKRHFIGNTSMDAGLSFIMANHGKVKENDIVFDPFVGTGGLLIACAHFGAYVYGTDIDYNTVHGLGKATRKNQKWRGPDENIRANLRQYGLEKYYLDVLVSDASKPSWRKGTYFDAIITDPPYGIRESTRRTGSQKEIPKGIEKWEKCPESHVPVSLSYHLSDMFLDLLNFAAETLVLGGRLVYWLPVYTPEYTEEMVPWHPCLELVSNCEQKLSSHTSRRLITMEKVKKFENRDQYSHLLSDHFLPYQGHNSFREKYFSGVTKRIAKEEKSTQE
UniProt Q96FX7: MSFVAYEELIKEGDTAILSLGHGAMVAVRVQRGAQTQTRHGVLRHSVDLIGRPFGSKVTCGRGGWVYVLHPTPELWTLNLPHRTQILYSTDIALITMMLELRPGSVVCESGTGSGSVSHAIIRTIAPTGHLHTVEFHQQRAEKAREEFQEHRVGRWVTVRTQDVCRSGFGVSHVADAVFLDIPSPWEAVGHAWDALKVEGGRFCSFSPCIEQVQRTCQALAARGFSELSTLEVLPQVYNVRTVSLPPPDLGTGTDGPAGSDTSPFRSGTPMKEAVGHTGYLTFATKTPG
UniProt Q7Z392: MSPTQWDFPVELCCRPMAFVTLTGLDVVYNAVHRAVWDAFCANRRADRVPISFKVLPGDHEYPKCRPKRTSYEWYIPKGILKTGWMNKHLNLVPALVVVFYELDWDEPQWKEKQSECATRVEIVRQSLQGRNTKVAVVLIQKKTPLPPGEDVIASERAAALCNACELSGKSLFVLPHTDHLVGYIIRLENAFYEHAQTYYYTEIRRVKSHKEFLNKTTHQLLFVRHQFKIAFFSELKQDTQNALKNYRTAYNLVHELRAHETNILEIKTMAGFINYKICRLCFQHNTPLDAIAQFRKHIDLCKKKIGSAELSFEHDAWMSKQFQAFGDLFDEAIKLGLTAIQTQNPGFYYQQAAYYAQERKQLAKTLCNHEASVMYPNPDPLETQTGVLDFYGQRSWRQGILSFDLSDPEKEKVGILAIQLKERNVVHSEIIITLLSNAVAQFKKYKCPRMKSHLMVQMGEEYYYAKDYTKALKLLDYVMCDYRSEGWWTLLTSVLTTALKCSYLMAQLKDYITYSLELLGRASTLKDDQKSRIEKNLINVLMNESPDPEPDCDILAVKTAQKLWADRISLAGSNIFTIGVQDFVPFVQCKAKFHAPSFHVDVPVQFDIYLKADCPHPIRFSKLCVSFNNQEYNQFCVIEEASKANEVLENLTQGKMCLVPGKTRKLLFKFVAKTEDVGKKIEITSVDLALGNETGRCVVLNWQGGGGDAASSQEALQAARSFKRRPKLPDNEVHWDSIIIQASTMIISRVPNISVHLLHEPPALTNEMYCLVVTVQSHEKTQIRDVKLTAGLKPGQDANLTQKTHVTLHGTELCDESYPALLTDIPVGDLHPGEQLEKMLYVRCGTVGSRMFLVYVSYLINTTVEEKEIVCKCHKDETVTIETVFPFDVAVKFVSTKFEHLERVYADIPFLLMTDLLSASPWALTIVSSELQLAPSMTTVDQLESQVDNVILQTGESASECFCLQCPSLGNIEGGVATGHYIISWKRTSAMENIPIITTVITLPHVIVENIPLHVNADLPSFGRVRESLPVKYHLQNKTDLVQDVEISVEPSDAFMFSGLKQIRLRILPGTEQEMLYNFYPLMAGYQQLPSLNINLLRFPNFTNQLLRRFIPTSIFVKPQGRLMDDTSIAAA
UniProt Q9UJA5: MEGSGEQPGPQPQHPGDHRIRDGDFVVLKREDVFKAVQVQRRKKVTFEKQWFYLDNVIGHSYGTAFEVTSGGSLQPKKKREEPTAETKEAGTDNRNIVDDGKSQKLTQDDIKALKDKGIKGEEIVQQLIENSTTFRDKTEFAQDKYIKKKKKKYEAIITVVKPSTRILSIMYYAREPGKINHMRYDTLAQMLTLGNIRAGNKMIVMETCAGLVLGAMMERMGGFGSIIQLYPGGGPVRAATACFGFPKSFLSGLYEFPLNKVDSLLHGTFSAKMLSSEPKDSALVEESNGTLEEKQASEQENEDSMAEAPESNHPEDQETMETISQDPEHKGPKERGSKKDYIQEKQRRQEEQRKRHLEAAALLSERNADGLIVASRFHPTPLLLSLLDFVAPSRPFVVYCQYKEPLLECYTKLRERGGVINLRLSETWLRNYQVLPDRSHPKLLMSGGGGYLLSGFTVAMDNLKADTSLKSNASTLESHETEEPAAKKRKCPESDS
UniProt P43897: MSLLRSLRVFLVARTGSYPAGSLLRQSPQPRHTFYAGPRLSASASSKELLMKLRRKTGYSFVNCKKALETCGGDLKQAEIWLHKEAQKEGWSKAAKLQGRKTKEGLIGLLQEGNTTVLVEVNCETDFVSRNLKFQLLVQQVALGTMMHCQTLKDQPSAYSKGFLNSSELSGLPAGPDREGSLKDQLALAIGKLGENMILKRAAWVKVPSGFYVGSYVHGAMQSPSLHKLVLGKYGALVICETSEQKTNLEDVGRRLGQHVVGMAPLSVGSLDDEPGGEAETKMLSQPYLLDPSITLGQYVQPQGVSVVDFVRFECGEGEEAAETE
UniProt Q969E8: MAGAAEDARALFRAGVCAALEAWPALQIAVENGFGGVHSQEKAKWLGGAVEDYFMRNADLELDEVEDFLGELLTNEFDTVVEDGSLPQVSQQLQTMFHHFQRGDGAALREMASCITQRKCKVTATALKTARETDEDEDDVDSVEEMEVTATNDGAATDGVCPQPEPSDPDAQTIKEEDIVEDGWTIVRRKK
UniProt A5PLN9: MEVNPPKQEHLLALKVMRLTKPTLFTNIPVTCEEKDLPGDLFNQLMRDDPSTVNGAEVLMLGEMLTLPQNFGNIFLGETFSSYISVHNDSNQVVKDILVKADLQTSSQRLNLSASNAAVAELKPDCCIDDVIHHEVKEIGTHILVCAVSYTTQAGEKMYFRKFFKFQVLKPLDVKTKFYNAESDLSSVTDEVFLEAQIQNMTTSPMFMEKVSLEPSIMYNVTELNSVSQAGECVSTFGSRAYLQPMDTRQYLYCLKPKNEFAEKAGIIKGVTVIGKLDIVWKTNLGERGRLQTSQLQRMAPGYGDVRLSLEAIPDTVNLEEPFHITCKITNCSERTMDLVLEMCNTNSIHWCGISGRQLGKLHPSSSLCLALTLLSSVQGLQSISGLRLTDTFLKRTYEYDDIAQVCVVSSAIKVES
UniProt Q2NL82: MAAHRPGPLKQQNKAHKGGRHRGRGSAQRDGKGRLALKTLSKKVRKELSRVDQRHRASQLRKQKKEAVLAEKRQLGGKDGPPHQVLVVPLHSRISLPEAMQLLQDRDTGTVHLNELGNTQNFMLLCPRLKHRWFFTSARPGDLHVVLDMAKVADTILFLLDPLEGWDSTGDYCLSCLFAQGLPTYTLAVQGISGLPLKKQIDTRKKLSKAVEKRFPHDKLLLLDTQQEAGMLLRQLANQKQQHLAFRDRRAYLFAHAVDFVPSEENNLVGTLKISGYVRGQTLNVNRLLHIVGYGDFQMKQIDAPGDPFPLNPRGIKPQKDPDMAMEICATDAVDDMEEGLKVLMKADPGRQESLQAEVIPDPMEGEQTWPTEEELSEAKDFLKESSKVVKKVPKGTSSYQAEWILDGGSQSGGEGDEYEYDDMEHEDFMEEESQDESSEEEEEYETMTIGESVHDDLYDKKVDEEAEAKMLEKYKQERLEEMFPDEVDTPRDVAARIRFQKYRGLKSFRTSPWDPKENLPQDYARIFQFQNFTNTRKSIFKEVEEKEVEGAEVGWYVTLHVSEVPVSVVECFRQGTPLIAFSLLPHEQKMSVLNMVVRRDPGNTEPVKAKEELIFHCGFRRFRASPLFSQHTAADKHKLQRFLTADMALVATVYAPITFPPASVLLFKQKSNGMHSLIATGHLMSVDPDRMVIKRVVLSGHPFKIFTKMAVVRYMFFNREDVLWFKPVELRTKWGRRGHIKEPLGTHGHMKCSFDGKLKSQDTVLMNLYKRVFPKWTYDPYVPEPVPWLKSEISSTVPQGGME
UniProt Q8N5M4: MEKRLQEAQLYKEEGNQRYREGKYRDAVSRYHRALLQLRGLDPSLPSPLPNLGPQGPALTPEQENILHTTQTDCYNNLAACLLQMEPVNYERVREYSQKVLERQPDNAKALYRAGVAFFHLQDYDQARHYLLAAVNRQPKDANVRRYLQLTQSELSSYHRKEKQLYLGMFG

What was measured:
Test in all cases: log2 fold change, soluble protein after heating vs DMSO (PISA); higher = thermal stabilisation; K562 lysate, 10 uM; active = over 0.2 and 3.5 SD of the protein, either way, in both replicates (recomputed)
erlotinib = compound: C#Cc1cccc(Nc2ncnc3cc(OCCOC)c(OCCOC)cc23)c1 [erlotinib]
In short: (§1)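 Values give the log-two fold change in thermal stability against solvent controls, from duplicates. Crude K562 extract at 1 mg/mL protein, made by dounce homogenisation in PBS pH 7.4 with 1 mM MgCl2, was treated with 10 μM compound for 30 min. After 3 min heating across 48°C-58°C, aliquots were pooled, adjusted to 0.5% NP-40 at 4°C and centrifuged at 21,000xg for 90 min. The supernatant was measured by TMTpro 16plex LC-MS/MS with channel sums equalised.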

[1] = compound: C/C(=N\NC(=O)C1=CC(=CC=C1)S(=O)(=O)N2CCOCC2)/C3=C(C=CC(=C3)Cl)O
In short: as §1

[2] = compound: C1=CC(=CC=C1C2=NC3=C(N2)C=C(C=C3)C(=O)N)OC4=CC=C(C=C4)Cl
In short: as §1

[3] = compound: C1=CC2=C(C=CC(=C2)/C=C\3/C(=O)NC(=NCC4=CC=CS4)S3)N=C1
In short: as §1

[4] = compound: C1=CC2=NC=CN=C2C=C1/C=C/3\C(=O)NC(=O)S3
In short: as §1

[5] = compound: C1=CC=C(C=C1)C2=NC(=C(N2)C3=CC=NC=C3)C4=CC(=C(C=C4)Cl)O
In short: as §1

[6] = compound: C1=CC=C2C(=C1)C3=NNC4=CC=CC(=C43)C2=O
In short: as §1

[7] = compound: C1CCN(C1)C(=O)NC2=CC=CC(=C2)NC3=NC=C(C(=N3)NCCC4=CN=CN4)Br
In short: as §1

[8] = compound: C1CN(CCC1(CC2=CC=C(C=C2)Cl)N)C3=NC=NC4=C3C=CN4
In short: as §1

IRAK-1-4 Inhibitor I = compound: C1COCCN1CCN2C3=CC=CC=C3N=C2NC(=O)C4=CC(=CC=C4)[N+](=O)[O-] [IRAK-1-4 Inhibitor I]
In short: as §1

ibrutinib = compound: C=CC(=O)N1CCC[C@@H](n2nc(-c3ccc(Oc4ccccc4)cc3)c3c(N)ncnc32)C1 [ibrutinib]
In short: as §1

[9] = compound: CC(=O)c1cnc2ccc(-c3cc(Cl)c(O)c(Cl)c3)nc2c1N[C@H]1CC[C@H](CN(C)C)CC1
In short: as §1

ralimetinib = compound: CC(C)(C)Cn1c(N)nc2ccc(-c3[nH]c(C(C)(C)C)nc3-c3ccc(F)cc3)nc21 [ralimetinib]
In short: as §1

[10] = compound: CC(C)(O)CC(=O)NCCn1ccc2ncnc(Nc3ccc(Oc4cccc(C(F)(F)F)c4)c(Cl)c3)c21
In short: as §1

[11] = compound: CC(C)C1=C2N=C(C=C(N2N=C1)NCC3=CC=CC=C3)NCCCCCCN
In short: as §1

[12] = compound: CC1=C(C(CC(=O)N1)C2=CC=C(C=C2)C(F)(F)F)C(=O)NC3=C(C=C4C(=C3)C=NN4)F
In short: as §1

[13] = compound: CC1=C(C2=C(C=C1)C(=O)C3=CC=CC=C3N2CCCN)C
In short: as §1

[14] = compound: CC1=C(C=C(C=C1)NC(=O)C2=CC(=CC=C2)C(C)(C)C#N)NC3=CC4=C(C=C3)N=CN(C4=O)C
In short: as §1

[15] = compound: CC1=C(C=C(C=C1)NC(=O)C2=CC(=CC=C2)N(C)C)NC(=O)C3=CC=C(C=C3)O
In short: as §1

[16] = compound: CC1=CC=C(C=C1)SC2=C3C=C(SC3=CN=C2)C(=O)N
In short: as §1

Measured: log2 fold change

TRAPPC12 (UniProt Q8WVT3)
inactive: erlotinib -0.049 | [1] -0.01 | [2] -0.048 | [3] -0.047 | [4] -0.018 | [5] -0.005 | [6] -0.061 | [7] -0.003 | [8] -0.005 | IRAK-1-4 Inhibitor I 0.027 | ibrutinib 0.001 | [9] -0.011 | ralimetinib 0.064 | [10] 0.02 | [11] -0.014 | [12] -0.022 | [13] -0.003 | [14] 0.008 | [15] -0.001 | [16] 0.009

TRIM21 (UniProt P19474)
inactive: erlotinib 0.048 | [1] -0.018 | [2] -0.057 | [3] 0.12 | [4] -0.02 | [5] -0.06 | [6] -0.089 | [7] -0.017 | [8] -0.012 | IRAK-1-4 Inhibitor I 0.041 | ibrutinib 0.002 | [9] 0.001 | ralimetinib 0.085 | [10] 0.097 | [11] 0.022 | [12] -0.024 | [13] -0.049 | [14] 0.004 | [15] -0.102 | [16] -0.01

TRIM38 (UniProt O00635)
inactive: erlotinib 0 | [1] 0.071 | [2] 0.004 | [3] 0.004 | [4] -0.015 | [5] 0.008 | [6] 0.018 | [7] 0.053 | [8] -0.09 | IRAK-1-4 Inhibitor I -0.003 | ibrutinib -0.049 | [9] -0.025 | ralimetinib -0.016 | [10] 0.012 | [11] -0.013 | [12] -0.023 | [13] 0.036 | [14] 0.018 | [15] 0.059 | [16] -0.034

TST (UniProt Q16762)
inactive: erlotinib -0.045 | [1] -0.046 | [2] 0.063 | [3] 0.152 | [4] 0.093 | [5] -0.017 | [6] -0.021 | [7] 0.002 | [8] -0.051 | IRAK-1-4 Inhibitor I -0.044 | ibrutinib 0.038 | [9] 0.003 | ralimetinib -0.099 | [10] 0.028 | [11] 0 | [12] 0.062 | [13] 0.006 | [14] -0.012 | [15] 0.064 | [16] -0.007

TSC1 (UniProt Q92574)
inactive: erlotinib 0.047 | [1] 0.005 | [2] 0.106 | [3] -0.189 | [4] 0.062 | [5] -0.026 | [6] 0.058 | [7] 0.049 | [8] 0.03 | IRAK-1-4 Inhibitor I 0.012 | ibrutinib 0.076 | [9] 0.019 | ralimetinib 0.065 | [10] 0.009 | [11] -0.003 | [12] -0.001 | [13] -0.06 | [14] 0.016 | [15] -0.001 | [16] 0.049

TRMT11 (UniProt Q7Z4G4)
inactive: erlotinib -0.02 | [1] 0.13 | [2] 0.005 | [3] 0.045 | [4] 0.02 | [5] -0.015 | [6] 0.059 | [7] 0.014 | [8] 0.014 | IRAK-1-4 Inhibitor I -0.019 | ibrutinib 0.017 | [9] 0.005 | ralimetinib 0.009 | [10] 0.002 | [11] -0.028 | [12] 0.001 | [13] 0.037 | [14] -0.028 | [15] -0.023 | [16] 0.03

TRMT61A (UniProt Q96FX7)
inactive: erlotinib 0.013 | [1] -0.058 | [2] 0.032 | [3] 0.002 | [4] -0.005 | [5] 0.007 | [6] -0.016 | [7] 0.021 | [8] -0.005 | IRAK-1-4 Inhibitor I -0.001 | ibrutinib 0.028 | [9] 0.012 | ralimetinib -0.078 | [10] 0 | [11] -0.019 | [12] 0.043 | [13] 0.03 | [14] 0.018 | [15] 0.052 | [16] 0.018

TRAPPC11 (UniProt Q7Z392)
inactive: erlotinib 0.034 | [1] -0.012 | [2] 0.017 | [3] 0.03 | [4] -0.031 | [5] -0.021 | [6] -0.017 | [7] -0.05 | [8] -0.039 | IRAK-1-4 Inhibitor I 0.025 | ibrutinib 0.019 | [9] -0.025 | ralimetinib 0.059 | [10] 0.004 | [11] 0.012 | [12] 0 | [13] -0.019 | [14] 0.072 | [15] 0.053 | [16] 0.021

TRMT6 (UniProt Q9UJA5)
inactive: erlotinib -0.022 | [1] -0.036 | [2] -0.007 | [3] -0.008 | [4] 0 | [5] -0.008 | [6] -0.001 | [7] -0.001 | [8] -0.006 | IRAK-1-4 Inhibitor I 0 | ibrutinib 0.036 | [9] -0.016 | ralimetinib 0.03 | [10] -0.007 | [11] 0.017 | [12] -0.01 | [13] -0.015 | [14] 0.01 | [15] 0.004 | [16] -0.003

Copied from the listing (4 entries):
TRMT11 (UniProt Q7Z4G4)
inactive: erlotinib -0.02 | [1] 0.13 | [2] 0.005 | [3] 0.045 | [4] 0.02 | [5] -0.015 | [6] 0.059 | [7] 0.014 | [8] 0.014 | IRAK-1-4 Inhibitor I -0.019 | ibrutinib 0.017 | [9] 0.005 | ralimetinib 0.009 | [10] 0.002 | [11] -0.028 | [12] 0.001 | [13] 0.037 | [14] -0.028 | [15] -0.023 | [16] 0.03

TRMT61A (UniProt Q96FX7)
inactive: erlotinib 0.013 | [1] -0.058 | [2] 0.032 | [3] 0.002 | [4] -0.005 | [5] 0.007 | [6] -0.016 | [7] 0.021 | [8] -0.005 | IRAK-1-4 Inhibitor I -0.001 | ibrutinib 0.028 | [9] 0.012 | ralimetinib -0.078 | [10] 0 | [11] -0.019 | [12] 0.043 | [13] 0.03 | [14] 0.018 | [15] 0.052 | [16] 0.018

TRAPPC11 (UniProt Q7Z392)
inactive: erlotinib 0.034 | [1] -0.012 | [2] 0.017 | [3] 0.03 | [4] -0.031 | [5] -0.021 | [6] -0.017 | [7] -0.05 | [8] -0.039 | IRAK-1-4 Inhibitor I 0.025 | ibrutinib 0.019 | [9] -0.025 | ralimetinib 0.059 | [10] 0.004 | [11] 0.012 | [12] 0 | [13] -0.019 | [14] 0.072 | [15] 0.053 | [16] 0.021

TRMT6 (UniProt Q9UJA5)
inactive: erlotinib -0.022 | [1] -0.036 | [2] -0.007 | [3] -0.008 | [4] 0 | [5] -0.008 | [6] -0.001 | [7] -0.001 | [8] -0.006 | IRAK-1-4 Inhibitor I 0 | ibrutinib 0.036 | [9] -0.016 | ralimetinib 0.03 | [10] -0.007 | [11] 0.017 | [12] -0.01 | [13] -0.015 | [14] 0.01 | [15] 0.004 | [16] -0.003

Next part

TSFM (UniProt P43897)
inactive: erlotinib -0.013 | [1] 0.009 | [2] -0.035 | [3] -0.003 | [4] -0.002 | [5] 0.017 | [6] -0.063 | [7] 0.024 | [8] 0.034 | IRAK-1-4 Inhibitor I -0.024 | ibrutinib 0.004 | [9] -0.05 | ralimetinib 0.03 | [10] 0.026 | [11] 0.015 | [12] -0.024 | [13] -0.003 | [14] 0.116 | [15] 0.017 | [16] -0.063

TTC7B isoform 2 (UniProt Q86TV6)
inactive: erlotinib 0.1 | [1] 0.017 | [2] -0.105 | [3] 0.055 | [4] -0.022 | [5] -0.005 | [6] 0.021 | [7] 0.014 | [8] 0.025 | IRAK-1-4 Inhibitor I 0.042 | ibrutinib 0.084 | [9] 0.138 | ralimetinib 0.069 | [10] -0.054 | [11] -0.05 | [12] -0.14 | [13] -0.036 | [14] 0.01 | [15] -0.108 | [16] -0.003

TSR2 (UniProt Q969E8)
inactive: erlotinib 0.016 | [1] 0.001 | [2] -0.031 | [3] 0.023 | [4] 0.068 | [5] -0.011 | [6] -0.009 | [7] 0 | [8] 0.055 | IRAK-1-4 Inhibitor I -0.03 | ibrutinib 0.011 | [9] -0.026 | ralimetinib 0.004 | [10] -0.039 | [11] -0.014 | [12] 0.024 | [13] -0.068 | [14] -0.02 | [15] 0.001 | [16] -0.009

TSC2 isoform 4 (UniProt P49815)
inactive: erlotinib 0.089 | [1] 0.062 | [2] 0.045 | [3] -0.048 | [4] -0.011 | [5] 0.006 | [6] -0.08 | [7] 0.012 | [8] 0.018 | IRAK-1-4 Inhibitor I 0.001 | ibrutinib -0.085 | [9] 0.013 | ralimetinib 0.065 | [10] -0.016 | [11] 0.043 | [12] -0.026 | [13] -0.046 | [14] 0.047 | [15] -0.021 | [16] -0.008

TRAPPC13 isoform 4 (UniProt A5PLN9)
inactive: erlotinib -0.002 | [1] 0.018 | [2] -0.006 | [3] 0.005 | [4] -0.017 | [5] 0.032 | [6] 0.021 | [7] -0.026 | [8] 0.034 | IRAK-1-4 Inhibitor I -0.019 | ibrutinib -0.002 | [9] 0.002 | ralimetinib -0.017 | [10] -0.028 | [11] -0.003 | [12] -0.006 | [13] -0.089 | [14] 0.05 | [15] 0.069 | [16] 0.036

TSR1 (UniProt Q2NL82)
inactive: erlotinib 0.037 | [1] 0.023 | [2] -0.012 | [3] 0.032 | [4] -0.005 | [5] 0.013 | [6] -0.001 | [7] -0.001 | [8] 0.013 | IRAK-1-4 Inhibitor I -0.008 | ibrutinib 0 | [9] -0.004 | ralimetinib 0.036 | [10] -0.004 | [11] 0.021 | [12] 0.005 | [13] -0.03 | [14] 0.007 | [15] 0.02 | [16] 0.019

TTC9C (UniProt Q8N5M4)
inactive: erlotinib 0.017 | [1] -0.036 | [2] 0.009 | [3] 0.028 | [4] 0.01 | [5] 0.005 | [6] -0.017 | [7] 0 | [8] 0.012 | IRAK-1-4 Inhibitor I -0.01 | ibrutinib 0.039 | [9] 0.011 | ralimetinib 0.026 | [10] -0.047 | [11] 0.013 | [12] -0.025 | [13] 0.003 | [14] -0.076 | [15] 0.02 | [16] 0.03
